This is one part of the list.

By UniProt entry, the sequences of proteins in these tests, tags left out.
UniProt Q0JBA9, entry or part of it: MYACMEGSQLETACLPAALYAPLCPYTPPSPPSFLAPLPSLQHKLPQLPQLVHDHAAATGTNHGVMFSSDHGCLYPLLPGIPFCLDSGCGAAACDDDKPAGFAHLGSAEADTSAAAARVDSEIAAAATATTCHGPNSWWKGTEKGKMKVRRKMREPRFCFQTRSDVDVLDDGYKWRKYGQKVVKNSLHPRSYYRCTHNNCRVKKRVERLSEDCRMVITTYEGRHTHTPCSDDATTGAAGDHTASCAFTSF

In this experiment the target is OsWRKY34 (Oryza sativa, UniProt Q0JBA9 1-250). The experiment in a line: protein-binding microarray (RPBM); PBS, 2% BSA, 51.3 ng/ul salmon testes DNA, 50 uM zinc acetate, 200 nM TF, 25 C, 1 h; high values mean tight binding. The following applies: protein: recombinant; tags: N-terminal polyhistidine and DsRed monomer fusion (pET32a); label: CyDye5-dUTP incorporated in the synthesized complementary strand; 3' TTTTT single-stranded linker to array surface; dsDNA, one strand shown. The gist of the method: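 Transcription factors, each fused N-terminally to a polyhistidine tag and DsRed, were expressed in E. coli BL21-CodonPlus and purified on Ni–NTA. A custom Agilent array was made double-stranded by primer extension with Cy5-dUTP and blocked with 2% BSA. It was incubated with 200 nM protein in PBS, 2% BSA, salmon testes DNA and 50 µM zinc acetate at 25 °C for 1 h, then washed. The binding signal is per-feature fluorescence intensity (arbitrary units) read on an Axon 4000B scanner.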
Consider “GATTTGGTTTTCGTCTGTTTATCCCAAGTTAAACTGCTATCGGAGTCACCTAGTGCAG”, for which the binding signal is 12200 fluorescence intensity (a.u.).
Then “TGAAACTAGTGCAGCACACCTACTTTGGTTTCTTGATTTTCGGAGTCACCTAGTGCAG”, with 8060 fluorescence intensity (a.u.).
Then “TCCACCTTGGAAAACGGCTCACGCAGCATCCTTTGTTTTTCGGAGTCACCTAGTGCAG”, with 9520 fluorescence intensity (a.u.).
Then “TTTCTTTTCTTTTGAAATCATATACTTATTATTCTTCTGTCGGAGTCACCTAGTGCAG”, with 9080 fluorescence intensity (a.u.); and “AGTCCGCGTACGTCCGCACCCGCCCGCTGCATGCCACCTACGGAGTCACCTAGTGCAG”, with 8140 fluorescence intensity (a.u.).
On to “GTGGCGCGAGGGGAGGGAAGGGTAGGGCGGCGCGGCGGCGCGGAGTCACCTAGTGCAG”, for which the binding signal is 9730 fluorescence intensity (a.u.).
Next, “CCCTCTCTCACGACAACATCATCACTTCATTATCACATGACGGAGTCACCTAGTGCAG”: 9350 fluorescence intensity (a.u.); “GAGTGCCTATTCAATTGCCTTTTGTTTGTCAACGTTTCTCCGGAGTCACCTAGTGCAG”: 8080 fluorescence intensity (a.u.).
Then “GTCATTTCTATGTTTGCAATTATCTATTTTACATTTACATCGGAGTCACCTAGTGCAG”, with 9200 fluorescence intensity (a.u.); and “ATATACGGCCGCCTCGATCGAGCTCGCACCACACTATCTTCGGAGTCACCTAGTGCAG”, with 8160 fluorescence intensity (a.u.); and “ATATAGATGGTAATGGGGTACAAATGCTTCACACTGAAAACGGAGTCACCTAGTGCAG”, with 8270 fluorescence intensity (a.u.).
“CGCCTCGTTCCGTCGCCCGCCCTGCTCCACCGGCCGGCTACGGAGTCACCTAGTGCAG”: the binding signal is 9790 fluorescence intensity (a.u.).
Next, “CAGCCCATGTTTTATCTGTTTTTTTAGTGTGTTGGCCCAGCGGAGTCACCTAGTGCAG”: 8290 fluorescence intensity (a.u.); “CGCCATGATCTCGCTCGCCACCACCCGCCTCTCATGGACTCGGAGTCACCTAGTGCAG”: 9800 fluorescence intensity (a.u.); “ATTTTCAGGCAGCTCACCTGGTCGACTTCCACACCGCATCCGGAGTCACCTAGTGCAG”: 11400 fluorescence intensity (a.u.).
Then “AAAACCCTCCACGTCAGCATATCAACATCCAGGCCCAACGCGGAGTCACCTAGTGCAG”, with 8670 fluorescence intensity (a.u.); and “TACATACATACATACATACATACATATATATATATATATACGGAGTCACCTAGTGCAG”, with 8200 fluorescence intensity (a.u.); and “ACCCTCATCCATACTGCCATCACCTCTTCATCCTGCATACCGGAGTCACCTAGTGCAG”, with 14000 fluorescence intensity (a.u.).
Then “TCTGATGGCGCGCACCACGGACGTCTTCATCGCCACCTTCCGGAGTCACCTAGTGCAG”, with 9700 fluorescence intensity (a.u.); and “CCTCTCATTGTCATGTATTCTACTTTTACTTGTGAGGGGTCGGAGTCACCTAGTGCAG”, with 10100 fluorescence intensity (a.u.).
As to “TGCACTCTTGAGCACTCCCAATTTTGTCATTGCCATACAACGGAGTCACCTAGTGCAG”, the binding signal is 11600 fluorescence intensity (a.u.).
Next, “ACATATTGGTCGCATTGATAGTTTTAATTTTTTTCTTCTACGGAGTCACCTAGTGCAG”: 9560 fluorescence intensity (a.u.); “TTTGAGGAAGTTGCATGGTTGAATGTTGGTGGTTGGTTATCGGAGTCACCTAGTGCAG”: 8740 fluorescence intensity (a.u.).
Next, “ACCCACCCAGTCGATTCATGACAGCTCCAGTTATAATTGCCGGAGTCACCTAGTGCAG”: 9190 fluorescence intensity (a.u.); “CGCCGTCGTCATCATTTGTCAATCAGTGACAGTCACGAGACGGAGTCACCTAGTGCAG”: 8410 fluorescence intensity (a.u.).
With “CTGAACCATCCGACTCACCACCGGTATTTCTCGGCCATCTCGGAGTCACCTAGTGCAG”, the binding signal is 8640 fluorescence intensity (a.u.).
Turning to “AGGTCCAGCTTGTTAAGGGTAGTATGTCTAGGGGTATTTTCGGAGTCACCTAGTGCAG”, the binding signal was 14000 fluorescence intensity (a.u.).
As for “CGTTGGAACGGTATACCGCTACGTAGTTTCCTCTAACACACGGAGTCACCTAGTGCAG”, the binding signal was 8230 fluorescence intensity (a.u.).
Then “TGTTGTTGACTTTTAAACACATGTTTGATCATTTGTCTTACGGAGTCACCTAGTGCAG”, with 14600 fluorescence intensity (a.u.); and “TCTCTCGTTCTCTCTATTTCTCCCTGTTTTCCTGTGTCTTCGGAGTCACCTAGTGCAG”, with 10100 fluorescence intensity (a.u.).
As to “CTCATCCACCCATCCTCATCCTTATCCTCACTCTCTCCTCCGGAGTCACCTAGTGCAG”, the binding signal is 9970 fluorescence intensity (a.u.).
Next, “CATTATACCTTTATCCCCTTCATTTCTGTTCCATTTCTCACGGAGTCACCTAGTGCAG”: 11000 fluorescence intensity (a.u.); “CACCTGCATGACGACTTAAATGTTTATGGTGATATCTTCTCGGAGTCACCTAGTGCAG”: 8470 fluorescence intensity (a.u.); “TCCTCCGACGACAACCAGTCCCGCTTCTTCTTCTCCGTCCCGGAGTCACCTAGTGCAG”: 8230 fluorescence intensity (a.u.).
Regarding “CTCCGCTTTATTATACCTGCCGCTAGCTCCTCCTCCGATGCGGAGTCACCTAGTGCAG”, the binding signal is 8040 fluorescence intensity (a.u.).
Then “CCACTTGCTCTCACTACCGACCACTGCTGATGCTCCTCTTCGGAGTCACCTAGTGCAG”, with 8940 fluorescence intensity (a.u.); and “GACGATCACATCACCCGCTCCATTTGCAACGGAGCTCCTTCGGAGTCACCTAGTGCAG”, with 12500 fluorescence intensity (a.u.).
Then “ATCCTAGTTATTTCAAAGGTATATTGCTTGCATTGTTTTGCGGAGTCACCTAGTGCAG”, with 8240 fluorescence intensity (a.u.); and “ATCTGCTTTTATGTTTCTCTGCCTTCTTGGCATTTGTAGTCGGAGTCACCTAGTGCAG”, with 8040 fluorescence intensity (a.u.); and “GCTGCTTGCACCGTCGGCTTCCTTTCTCGCGCGCTCGCGACGGAGTCACCTAGTGCAG”, with 11500 fluorescence intensity (a.u.).
Next, “TCCCACCTCCGAGATCCCCACCTCCACCATTTCTCTTTCTCGGAGTCACCTAGTGCAG”: 9890 fluorescence intensity (a.u.).
For the sequence “TATACTCACGCTATTTTACCCTTGAAACAGGACCATTCATCGGAGTCACCTAGTGCAG”, the binding signal was 9380 fluorescence intensity (a.u.).

Values taken from article PMC7819943, “Rice protein-binding microarrays: a tool to detect cis-acting elements near promoter regions in rice”.
